At least one structure is not confirmed: it was looked up by name or label, or the drawing left a doubt.
Test system: yeast cells lacking HMG1 and HMG2 with HMG1 overexpression plasmid (HMG-CoAR)
Experiment: Yeast HMG-CoAR screening assay (yeast cell growth, OD660, with or without mevalonate)
Type: cell-based, Saccharomyces cerevisiae
Text: The present invention provides a screening method to identify potential HMG-CoAR inhibitors. The present method comprises providing a yeast strain which lacks HMG1 and HMG2 genes but containing a HMG1 overexpression plasmid, contacting said yeast strain with a test material. If the test material can inhibit the HMG1 activity or expression, the yeast cells will die. In order to validate the death of yeast cells is due to inhibition of HMG1 by the test material, the present invention also includes adding mevalonate compound, which is a downstream product of the HMG-CoAR. HMG-CoAR inhibitory activity of the test material is confirmed if the cell viability of the yeast strain is unaffected by the test material in the presence of mevalonate.
Saccharomyces cerevisiae (MATa ade2-101 his3-200 hmg1::LYS2 hmg2:his3 lys2-80 met TRP1 ura3-52 with overexpression of yeast HMG1 containing plasmid) were used in the screening assay. Cells were grown at 30° C. in YEPD, consisting of 10 g/L yeast extract, 20 g/L Bacto-peptone and 20 g/L dextrose.
Yeast cells were grown overnight in YEPD medium to ^˜7.0 OD660 at 30° C. […] Cells were then grown for 16 hours at 30° C. and the inhibitory effect of HMG-CoAR determined by measuring the cell density OD660 of each well by a micro-plate reader. […]

## CCC(C)(C)C(=O)O[C@H]1C[C@@H](C)C=C2C=C[C@H](C)[C@H](CC[C@@H]3C[C@@H](O)CC(=O)O3)[C@H]21 [simvastatin, reference compound]
Different concentrations, without mevalonate
  growth inhibitory effect in yeast cells: inhibit yeast cells growth in a dose-dependent manner
With 10 mg/ml mevalonate
  effect of mevalonate on the growth inhibitory effect in yeast cells: reduces the inhibitory effect

— US20130210752A1, “USING A NOVEL HIGH-THROUGHPUT YEAST CELL-BASED SCREENING PLATFORM TO IDENTIFY HMG-COA REDUCTASE INHIBITORS FROM NATURAL PRODUCTS AND THE USES OF SUCH INHIBITORS THEREOF” (HONG KONG BAPTIST UNIVERSITY, priority 2012, published 2013)
